PubChem BioAssay AID1224828, NIAID | 2016
Aim: 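Knock-downs that increase or decrease LPS-induced p65 nuclear translocation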 (primary screen). Cells: mouse RAW264.7 G9 macrophage reporter cells (GFP-p65, Tnf promoter-mCherry). Knock-down reagent: siRNA pool against mouse genes, 100 nM. Duration: 2 days siRNA transfection, then 40 min LPS before fixation. Treatment: LPS (Salmonella minnesota R595) at 10 ng/ml. Measurement: 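Imaged p65 nuclear translocation ratio, normalised to the plate median, converted to robust z-scores and averaged across two replicates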. Direction: p65 translocation robust z-score: higher = more nuclear NF-kappaB p65 after LPS than the plate median; nuclear/cytoplasmic p65 ratio: higher = more nuclear NF-kappaB p65. Hit rule: 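Called active when z exceeds 3.3 or falls under -1.56 (median of Tlr4 controls), giving activity score of at least 50; no calls for control wells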. Meaning of the calls: active = hit (p65 shift raised or lowered); inactive = no clear change.
Here is one part, drawn at random, of about 17,000 deposited reagents. 762 of all reagents (4.5%) count as active. 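Active calls include both raised and lowered p65 entry, mostly lowered; wells with fewer than 50 cells lack a z-score.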 The raw values are shown without normalisation. No sequences are given here.

Chrdl2 showed p65 translocation robust z-score 0.52; nuclear/cytoplasmic p65 ratio, rep 1 = 1.65; nuclear/cytoplasmic p65 ratio, rep 2 = 1.89; low cell count flag enough cells to score; inactive.
For Tmem168, the values are p65 translocation robust z-score -0.06; nuclear/cytoplasmic p65 ratio, rep 1 = 1.49; nuclear/cytoplasmic p65 ratio, rep 2 = 1.46; low cell count flag enough cells to score; inactive.
Depletion of Habp2 came out at: p65 translocation robust z-score 0.5; nuclear/cytoplasmic p65 ratio, rep 1 = 1.69; nuclear/cytoplasmic p65 ratio, rep 2 = 1.64; low cell count flag enough cells to score; inactive.
Ezh2 showed p65 translocation robust z-score -0.25; nuclear/cytoplasmic p65 ratio, rep 1 = 1.48; nuclear/cytoplasmic p65 ratio, rep 2 = 1.29; low cell count flag enough cells to score; inactive.
With knock-down of Pth2r, the record shows p65 translocation robust z-score -0.6; nuclear/cytoplasmic p65 ratio, rep 1 = 1.42; nuclear/cytoplasmic p65 ratio, rep 2 = 1.51; low cell count flag enough cells to score; inactive.
Silencing of Usp25 resulted in: p65 translocation robust z-score 0.55; nuclear/cytoplasmic p65 ratio, rep 1 = 1.57; nuclear/cytoplasmic p65 ratio, rep 2 = 1.6; low cell count flag enough cells to score; inactive.
Nusap1 gave p65 translocation robust z-score 0.42; nuclear/cytoplasmic p65 ratio, rep 1 = 1.41; nuclear/cytoplasmic p65 ratio, rep 2 = 1.55; low cell count flag enough cells to score; inactive.
Depletion of Pla2g4b came out at: p65 translocation robust z-score 0.01; nuclear/cytoplasmic p65 ratio, rep 1 = 1.52; nuclear/cytoplasmic p65 ratio, rep 2 = 1.39; low cell count flag enough cells to score; inactive.
Knock-down of Imp3 came out at: nuclear/cytoplasmic p65 ratio, rep 1 = 1.37; nuclear/cytoplasmic p65 ratio, rep 2 = 1.93; low cell count flag fewer than 50 cells per well; well left out of scoring; inactive.
Against Synpr, the entry reads p65 translocation robust z-score 0.07; nuclear/cytoplasmic p65 ratio, rep 1 = 1.38; nuclear/cytoplasmic p65 ratio, rep 2 = 1.2; low cell count flag enough cells to score; inactive.
Against Mta3, the values are p65 translocation robust z-score 0.65; nuclear/cytoplasmic p65 ratio, rep 1 = 1.91; nuclear/cytoplasmic p65 ratio, rep 2 = 1.67; low cell count flag enough cells to score; inactive.
Silencing of Arhgef18 gave: p65 translocation robust z-score -0.81; nuclear/cytoplasmic p65 ratio, rep 1 = 1.5; nuclear/cytoplasmic p65 ratio, rep 2 = 1.5; low cell count flag enough cells to score; inactive.
Depletion of S100b came out at: p65 translocation robust z-score -0.95; nuclear/cytoplasmic p65 ratio, rep 1 = 1.35; nuclear/cytoplasmic p65 ratio, rep 2 = 1.41; low cell count flag enough cells to score; inactive.
After knock-down of Rasgrp2 the results were p65 translocation robust z-score 0.33; nuclear/cytoplasmic p65 ratio, rep 1 = 1.51; nuclear/cytoplasmic p65 ratio, rep 2 = 1.61; low cell count flag enough cells to score; inactive.
